Values from PubChem BioAssay AID1224826 (NIAID, 2016).

- Assay: 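Knock-downs that raise or lower Tnf reporter signal after endotoxin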 (primary screen)
- Cell system: RAW264.7 G9 macrophages from mouse bearing reporters for p65 (GFP) and the Tnf promoter (mCherry)
- Knock-down reagent: siRNA pool against mouse genes, 100 nM
- Time to read-out: 16 h of LPS stimulation, after 2 days of siRNA transfection
- Conditions: bacterial lipopolysaccharide (Salmonella minnesota R595), 10 ng/ml
- Measured: 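Nuclear mCherry signal of the Tnf promoter reporter measured by imaging after background removal, scaled to each plate median and turned into robust z-scores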
- Direction: Tnf reporter robust z-score: higher = stronger Tnf promoter reporter signal after LPS; Tnf reporter intensity: higher = stronger Tnf promoter reporter signal
- Call rule: 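a well counts as active at a score of -1.3 or below (Tlr4 knock-down control median) or above 3 (raised signal); controls and wells holding fewer than 50 cells are excluded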
- Meaning of the calls: active = Tnf reporter clearly lowered or raised; inactive = no clear change in Tnf reporter
This is one part, drawn at random, of about 17,000 reagents tested. Over the whole deposit, about 1,110 (6.6%) are marked active. 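Active means lowered or raised reporter signal; replicate intensities are raw and not normalised per plate.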 Entries without a mark were called inactive. Reagents against one gene are numbered here. Some reagents were tested in more than one well and are listed for each. Not all columns of the deposit are shown. Reagent sequences are not shown.

| gene symbol | reagent | Tnf reporter robust z-score | fewer than 50 cells in well | Tnf reporter intensity, replicate 1 |
| --- | --- | --- | --- | --- |
| Epn2 | 1 | -0.64 | enough cells in well | 213 |
| Col26a1 | 1 | 2.51 | enough cells in well | 342 |
| Selp | 1 | -0.94 | enough cells in well | 179 |
| Or5b96 | 1 | -0.15 | enough cells in well | 167 |
| Arf1 | 1 | -1.34 (active) | enough cells in well | 91.4 |
| Impg1 | 1 | 0.55 | enough cells in well | 244 |
| Mtus1 | 1 | 1.48 | enough cells in well | 295 |
| Abhd17b | 1 | 1.24 | enough cells in well | 151 |
| Dcpp1 | 1 | -1.51 (active) | enough cells in well | 99.9 |
| Dcpp1 | 2 | – | fewer than 50 cells per well; well left out of calls | 62.2 |
| Acot11 | 1 | 0.34 | enough cells in well | 226 |
| Tnn | 1 | -0.6 | enough cells in well | 73.2 |
| Gk | 1 | -1.22 | enough cells in well | 124 |
| Gabra6 | 1 | 0.03 | enough cells in well | 264 |
| Esr1 | 1 | -0.33 | enough cells in well | 186 |
| Pilrb1 | 1 | – | fewer than 50 cells per well; well left out of calls | 102 |
| Relt | 1 | 0.9 | enough cells in well | 325 |
| Sh3bgrl2 | 1 | -0.37 | enough cells in well | 106 |
| Rpf1 | 1 | – | fewer than 50 cells per well; well left out of calls | 124 |
| Plscr4 | 1 | -0.81 | enough cells in well | 113 |
| Fam234b | 1 | 0.31 | enough cells in well | 233 |
| Or5k17 | 1 | -1.3 (active) | enough cells in well | 107 |
| Gucy1b1 | 1 | 0.22 | enough cells in well | 249 |
| Tcl1b3 | 1 | – | fewer than 50 cells per well; well left out of calls | 91.8 |
| Dnajb6 | 1 | 2.9 | enough cells in well | 372 |
| Gabpa | 1 | -0.95 | enough cells in well | 144 |
| Pld4 | 1 | 0.28 | enough cells in well | 239 |
| Dysf | 1 | -0.45 | enough cells in well | 215 |
| Or5p4 | 1 | 0.05 | enough cells in well | 58.9 |
| Unc119b | 1 | 0.48 | enough cells in well | 182 |
| Cyp26b1 | 1 | -0.51 | enough cells in well | 163 |
| Gpatch11 | 1 | – | fewer than 50 cells per well; well left out of calls | 186 |

Continued (8 carried over from the part before).
| gene symbol | reagent | Tnf reporter robust z-score | fewer than 50 cells in well | Tnf reporter intensity, replicate 1 |
| --- | --- | --- | --- | --- |
| Dnajb6 | 1 | 2.9 | enough cells in well | 372 |
| Gabpa | 1 | -0.95 | enough cells in well | 144 |
| Pld4 | 1 | 0.28 | enough cells in well | 239 |
| Dysf | 1 | -0.45 | enough cells in well | 215 |
| Or5p4 | 1 | 0.05 | enough cells in well | 58.9 |
| Unc119b | 1 | 0.48 | enough cells in well | 182 |
| Cyp26b1 | 1 | -0.51 | enough cells in well | 163 |
| Gpatch11 | 1 | – | fewer than 50 cells per well; well left out of calls | 186 |
| Ogfod1 | 1 | 1.6 | enough cells in well | 263 |
| Sgtb | 1 | 0.56 | enough cells in well | 102 |
| Usp49 | 1 | -0.41 | enough cells in well | 106 |
| Usp1 | 1 | 0.68 | enough cells in well | 277 |
| Mapkap1 | 1 | -0.34 | enough cells in well | 196 |
| Mapkap1 | 2 | -0.98 | enough cells in well | 208 |
| Cblc | 1 | -0.68 | enough cells in well | 198 |
| Npnt | 1 | 1.4 | enough cells in well | 230 |
| Dok3 | 1 | -0.24 | enough cells in well | 190 |
| Psme1 | 1 | -0.91 | enough cells in well | 162 |
| Cyb561d2 | 1 | -1.34 (active) | enough cells in well | 91.2 |
| Pcdhb1 | 1 | -0.96 | enough cells in well | 182 |
| Chmp4c | 1 | – | fewer than 50 cells per well; well left out of calls | 184 |
| Tex261 | 1 | 4.04 (active) | enough cells in well | 264 |
| Syngr1 | 1 | -1.39 (active) | enough cells in well | 59.5 |
| Eomes | 1 | -1.08 | enough cells in well | 146 |
| Ilkap | 1 | – | fewer than 50 cells per well; well left out of calls | 171 |
| Ilkap | 1 | -1.26 | enough cells in well | 215 |
| Reep3 | 1 | -0.66 | enough cells in well | 138 |
| Haus4 | 1 | -0.81 | enough cells in well | 136 |
| Pcsk1 | 1 | 0.52 | enough cells in well | 301 |
| Zmat2 | 1 | – | fewer than 50 cells per well; well left out of calls | 166 |
| Cflar | 1 | – | fewer than 50 cells per well; well left out of calls | 90.9 |
| Fkbp2 | 1 | -0.04 | enough cells in well | 292 |
| Spin4 | 1 | -0.08 | enough cells in well | 158 |
| Eps8 | 1 | 0.55 | enough cells in well | 225 |
| Nlrp3 | 1 | -0.46 | enough cells in well | 180 |
| Atp6v0b | 1 | -0.29 | enough cells in well | 165 |
| Asph | 1 | -0.69 | enough cells in well | 125 |
| Bola3 | 1 | – | fewer than 50 cells per well; well left out of calls | 138 |
| Txlna | 1 | 0.37 | enough cells in well | 214 |
| Mageb3 | 1 | -0.05 | enough cells in well | 209 |
| Gzmk | 1 | 0.9 | enough cells in well | 361 |
| Ndufa7 | 1 | -1.33 (active) | enough cells in well | 124 |
| Or4c106 | 1 | -0.18 | enough cells in well | 185 |
| Klf11 | 1 | 0.6 | enough cells in well | 266 |
| Gask1a | 1 | 2.16 | enough cells in well | 255 |
| B430209F14Rik | 1 | -1.19 | enough cells in well | 167 |
| H1f7 | 1 | -0.05 | enough cells in well | 206 |
| Renbp | 1 | -0.37 | enough cells in well | 310 |
| Spice1 | 1 | 0.01 | enough cells in well | 241 |
| Or10c1 | 1 | -1.14 | enough cells in well | 87.6 |
| Tmpo | 1 | 0.43 | enough cells in well | 114 |
